Measured values published in patent publication US8354502B2, “Bioactive peptides identified in enzymatic hydrolyzates of milk caseins and method of obtaining same” (Consejo Superior de Investigaciones Cientificas, priority 2005, dated 2013).
“Also recorded” adds a separate entry of the source. Not every detail of the peptide structures is certain; ends, links or a residue may be inferred. Where no end group is shown, it is not given here.

Assays:
[1] = tested on: Enterococcus faecalis CECT 795; test: Antimicrobial activity (colony count after 2 h incubation); format: cell-based; conditions: synthetic peptide 0.05 mM
Method: (§1) The antimicrobial activity is determined in accordance with the method of A. Pellegrini, C. Deltting, U. Thomas, P. Hunziker (Isolation and characterization of four bactericidal domains in the bovine β-lactoglobulin Biochimica et Biophysica Acta, 2001, 1526:131-140) using as microorganisms Escherichia coli [American Type Culture Collection (ATCC), Rockville, Md., USA] ATCC 25922, Listeria innocua [Colección Española de Cultivos Tipo (CECT) Valencia, Spain] CECT 910T, Staphylococcus epidermidis CECT 231, Enterococcus faecalis CECT 795, Serratia marcescens CECT 854 and Staphylococcus carnosus CECT 4491T.
(§2) The bacterial suspensions are inoculated at 1% in the Tryptose Soy Broth (TSB) for Escherichia coli, Serratia marcescens and the strains of the Staphylococcus genus, or in the brain-heart infusion (BHI) broth for Enterococcus faecalis and Listeria innocua. The incubation is carried out at 37° C., except in the case of Serratia marcescens, which is at 30° C.
(§3) The bacterial innoculum, from which the work is begun, is obtained after incubating a colony grown in TSB-Agar or BHI-Agar in 10 mL of TSB or BHI overnight at 37a or 30° C. The bacterial suspension (1 mL) is diluted 1/50 with the corresponding culture medium, being incubated at the appropriate temperature for each strain up to achieving a population density of 1-4×10^8 colony-forming units (CFU) per mL. The culture is centrifuged at 2000×g for 10 minutes, the sedimented bacteria are washed twice with 15 mL phosphate buffer (pH 7.4) and the population is adjusted to 10^6 CFU/mL. On a sterile multi-well plate (Greiner Labortechnik, Frickenhausen, Germany), 50 μL of the bacterial suspension, 50 μL of the substance to be tested and 100 μL of the phosphate buffer are mixed with 2% of the appropriate culture medium in each case, and the mixture is incubated at 37° C. or 30° C. for 2 hours. After this time, the mixture is diluted to 10^−5, 100 μL of each one of the dilutions are added to TSB-Agar or BHI-Agar plates and the plates are incubated for 24 hours, after which time the colony count is taken.
(§4) The following equation is used for calculating the antimicrobial activity:
(§5) [formula] [formula] [formula] Measurement of the Angiotensin-Converting Enzyme Inhibitory Activity (ACEIa)

[2] = tested on: Escherichia coli ATCC 25922; test: as above; format: cell-based; conditions: synthetic peptide 0.05 mM
Method: as §1, §2, §3, §4, §5

[3] = tested on: Listeria innocua CECT 910T; test: as above; format: cell-based; conditions: synthetic peptide 0.05 mM
Method: as §1, §2, §3, §4, §5

[4] = tested on: Serratia marcescens CECT 854; test: as above; format: cell-based; conditions: synthetic peptide 0.05 mM
Method: as §1, §2, §3, §4, §5

[5] = tested on: Staphylococcus carnosus CECT 4491T; test: as above; format: cell-based; conditions: synthetic peptide 0.05 mM
Method: as §1, §2, §3, §4, §5

[6] = tested on: Staphylococcus epidermidis CECT 231; test: as above; format: cell-based; conditions: synthetic peptide 0.05 mM
Method: as §1, §2, §3, §4, §5

[7] = Oxygen radical absorption capacity (ORAC), antioxidant activity
[8] = tested on: spontaneously hypertensive rats (SHR); test: Antihypertensive activity in spontaneously hypertensive rats (SHR), tail cuff SBP and DBP; format: in vivo, rat; conditions: 3 mg/kg, intragastric catheter
Method: The effect of several of the peptides identified on the blood pressure of spontaneously hypertensive rats (SHR) is studied. The peptides are chemically synthesized for this study.
The study is conducted with male SHR rats 17-20 weeks of age weighing 300 to 350 g, from Charles River Laboratories España S. A. The rats are kept in cages, five per cage, maintaining a stable temperature of 25° C., with 12-hour light-darkness cycles, taking water and food ad libitum. […] The SBP and DBP values are determined by taking 3 consecutive measurements and calculating the average of the three values for each one of these two variables. […]
The products to be tested are administered by means of an intragastric catheter within a time span ranging from 9 a.m. to 10 a.m., and the dosage tested is administered dissolved in 1 ml of distilled water. SBP and DBP readings are taken prior to the administration, and periodic measurements of these variables are also made every 2 hours following the administration, up to 8 hours post-administration. […]
The results are grouped and the ±average of the standard error of the measurement (SEM) for a minimum of 6 homogeneous tests is calculated. […]

PYVRYL [SEQ. ID. No. 7, PYVRYL]
Antimicrobial activity E. faecalis [1]: 0
Antimicrobial activity E. coli [2]: 0.27
Antimicrobial activity L. innocua [3]: 1.13
Antimicrobial activity S. marcescens [4]: 0
Antimicrobial activity S. carnosus [5]: 2.23
Antimicrobial activity S. epidermidis [6]: 2.06
ORAC, peroxyl radical chelating activity [7]: 1.82 μmol Trolox equivalents/μmol peptide
time of peak lowering of SBP and DBP after administration [8]: 4 h
lowering of the SBP and DBP ([8]; acute): significant lowering of the SBP and DBP; also recorded: significant lowering of the SBP and of the DBP
